In US20200199241A1 one finds binding data, which are given here for one molecule.

Amino acid sequences for entries named in this document (tags omitted). Residues count along the entry.
UniProt P05231, residues 30-212: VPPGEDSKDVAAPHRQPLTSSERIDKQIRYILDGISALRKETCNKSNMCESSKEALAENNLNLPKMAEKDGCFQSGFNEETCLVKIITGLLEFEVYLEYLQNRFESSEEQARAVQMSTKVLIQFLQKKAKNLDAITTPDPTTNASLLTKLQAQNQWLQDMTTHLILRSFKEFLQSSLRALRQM

Results are given in words; binding and its absence hold for the method and conditions named. Some entries that bind do so weakly or less than the wild type.

The target in the experiment is IL-6 (biotin-labeled) (UniProt P05231). Nature of the experiment: phage ELISA on biotin-labeled IL-6, […] CaCl2 against 1 mM EDTA.

B1: antibody 6KC4-1#85 (Fab, V domains shown)
VH: EVQLVESGGGLVQPGGSLRLSCAASGFTFSSYEMNWVRQAPGKGLEWVSYISSSGSTIYYADSVKGRFTISRDNAKNSLYLQMNSLRAEDTAVYYCARDAPYYYDSSGYTDAFDIWGQGTMVTVSS
VL: EIVLTQSPATLSLSPGERATLSCRASQSVSSYLAWYQQKPGQAPRLLIFDASNRAAGIPARFSGSGSGTDFTLTISSLEPEDFAVYYCQQFDKWVTFGGGTTVEIR
Regarding B1, the binding result is recorded as “binds”.
